Screen size: about 53,000 sequences; about 3,700 (7%) were called active.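 The calls were made as follows: active = gene knockdowns whose robust z-score for IL-1 alpha signal is at least 2 or at most -2, so actives lie on both sides; inactive = the rest.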 The list shows a part of the results.

The test can be described thus: Components of the Cytosolic LPS Sensing Pathway: Gene Identification via Genome-wide siRNA Screen.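 Also: robust z of the log signal after scaling to non-targeting control siRNA wells of the plate.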 Conditions: RAW264.7 macrophages, IL-1a HTRF, actives lie on both sides, screened at 100 nM (by protocol), cells primed 5 h with Pam3CSK4 first. The essentials:
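Mouse macrophage line RAW264.7 is transfected with siRNA (100 nM final), grown 48h, primed with TLR ligand Pam3CSK4 5 h and given intracellular LipidA 24 h. IL-1a in supernatant is read by HTRF and viability by luminescence.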
In the case of GGCAUUGACAUAGGUCAUATT against Blcap, the z-score is inactive: 0.668.
Turning to CCAAAUCUGAAAUGUGCGGTT against Nprl3, the z-score is inactive: -0.0808.
As for GGCAAAAACAACAACAACATT against Isg20, the z-score is inactive: -1.31.
In the case of GGCCUCACCUUUUUCUAUUTT against Tmem121, the z-score is inactive: -0.663.
For CCCUGUUAGUGUCUCUAUUTT against Tas2r113, the z-score was inactive: 0.179.
As to GGAAAUCGUGCCUAGUCUGTT against Cdk3, the z-score was inactive: 0.0204.
In the case of GGAAUGAUAUUCUUGUUUCTT against Klhl24, the z-score is inactive: 0.834.
CCCUGAUAUAUACACAUACTT against Pofut1: the z-score was inactive: -1.59.
As to CGUUAGCAGGAUGUUAAACTT against Ropn1, the z-score was inactive: -0.715.
As for GCACCUUUGACAGAAGAACTT against Ptf1a, the z-score was inactive: 0.848.
Turning to GGUGUCCAGUCAAUAAGAGTT against Msx3, the z-score is inactive: -0.0298.
Regarding GGGCCAUGCUAGAUUUGCUTT against Scamp1, the z-score was inactive: -1.34.
In the case of GCACAACAAGCGAUGUCAUTT against Myo9b, the z-score is active: -2.13.
For GAUAUGUGCACAAUUCUGCTT against Vmn1r201, the z-score is active: -2.3.
Take GGAAGCAGGGCAGCUUAUUTT against Hbq1a: the z-score is active: -2.22.
Take GGUGACAAAAGUCUUUAACTT against Mkrn3: the z-score is inactive: -1.41.
Regarding CCCUAGAAGAGCUCUGUUATT against Cts6, the z-score is inactive: 1.1.
For GGAAGAAAAGGGAUAUCAGTT against Xirp1 the value was inactive: 0.253.
With GGACCAAGGGUUCAUAGCATT against Wdr35, the z-score is inactive: -0.137.
GGAGAUCAUGAAGGAGCUATT against Tinagl1: the z-score is inactive: 0.0227.
Regarding CCGAGAAAUGGAAACUUAGTT against Pramel25, the z-score was inactive: 0.891.
For GGUUUUUACAUCAUCUUGATT against Stom the value was inactive: 1.9; for GCGGCAGUAAAUUGUGAGGTT against Grin3b, inactive: 1.4; for CGAUGAUUAACAUCUUACGTT against Scrn1, inactive: -1.93.
Consider CCUCUUUGGAAGAAUGCUGTT against Mapk11, for which the z-score is inactive: -1.32.
In the case of GCAGAUCUCCGAUUAUUUUTT against Doc2b, the z-score is inactive: -0.0671.
Turning to GGAAAAUCAGCAUUUUGCCTT against Cdca3, the z-score was inactive: -0.463.
For the sequence GGCCUCUGUCAUUUUAAAGTT against Tmem121, the z-score is inactive: -1.63.
As for GGUACUUUCCUUUCGAUGCTT against Skint10, the z-score is inactive: -0.524.
For GGGAUUUGAGCAUCUUUCCTT against Lrrc40, the z-score was inactive: 0.571.
On to GCUCAGUUUACCACACGAGTT against Arl11, for which the z-score is inactive: -1.23.
As for GGCGCGAAGUGUGAAUUUCTT against Megf10, the z-score is inactive: 1.1.
Consider GCCUAGACCAGACACCAAATT against Prp15, for which the z-score was inactive: -1.49.
For GAGAAUAAUACCAUCUCCUTT against Olfr482, the z-score was inactive: 0.558.
GGAGGAAGAUUUUUUUGCUTT against Arfgap3: the z-score is inactive: 0.736.
With GGUGCCCUAUGGAGAGAAATT against Serac1, the z-score was inactive: -0.209.
Turning to CCAGUCAAAAGGAAAUGAATT against Dclre1a, the z-score was inactive: 0.421.
For GGCGAUCCUUACUCCAAUGTT against Zfp90 the value was inactive: 0.143; for CGGUUAGUCUGUCAGUAUCTT against Xrcc3, inactive: 0.488; for GCGUGCUUUGAAGAGGUUGTT against Olfr298, inactive: 0.759.
For GGAAGAGCAGGCAUCCAUATT against Ranbp10 the value was inactive: -0.294; for CCUGUAAGGUCUCUAGCAUTT against Exosc1, inactive: 1.53.
Regarding CGAGAAGACCAUCAUCAUATT against Rbbp9, the z-score is inactive: -0.193.
Consider GGAGGCCACCAAAAUUAACTT against Kif17, for which the z-score was inactive: -0.914.
Turning to GGUCGAAGAGGAAGUAAACTT against Cd40lg, the z-score was inactive: -0.438.
Turning to GGACUAUGUCUUUGACAAATT against Cdyl2, the z-score was inactive: -0.133.
Then CCCAUCAAUGCUGUUAAUUTT against Entpd5, with inactive: 0.128; and GGACCAGGUCCGUUGGAAUTT against Efna1, with inactive: 0.636; and GCCUUUCUAUGCCCAGCAUTT against Ccdc117, with inactive: -0.0526.
Regarding GGUACCAUCACAGUGCGUCTT against Ip6k3, the z-score is inactive: 0.923.
For the sequence GCAUUUUGUUGUGCUAUAGTT against Tmem255a, the z-score is inactive: -0.00422.
Regarding GGGCCAACAGAAACAGAAGTT against Otp, the z-score is inactive: -0.524.
Then GGUGCCGAACGUGUAAUUATT against Rarb, with inactive: 0.936; and GGUGAAAAUACAUUGCCAGTT against Plk4, with inactive: -0.712; and GGAUAACCAAAGGAAUGUUTT against Cldn17, with inactive: -1.52.
Take GGAAGGUUGUAAGUUUAAATT against Krtap14: the z-score is active: 2.12.
Then GGGCAAAGAUCAAAGAGAUTT against Man1a, with inactive: -0.00191.
As for GCAAACUUAUUACCAGGGATT against Shc3, the z-score was inactive: 0.293.
Then GGUACCUGAGGAAAAGGUUTT against Nlrp2, with inactive: -1.51; and CGGAUUUCAUGGCUCAAGATT against Gfm2, with inactive: -0.123; and GCUAAGGACACGCUCUAUCTT against Sema5b, with inactive: -0.0272.
In the case of GCACUUAUGGUUUAGAUGUTT against Prdm8, the z-score was inactive: -0.127.
With GGUUGCACUCAUCUUAAAATT against Zfp9, the z-score was inactive: 1.59.
With CCAAUCAUGAUCUGGGCUCTT against Gng4, the z-score was inactive: 1.46.
Then GCAAGCUGAACUACUUGAGTT against Ern1, with inactive: 0.425.
Regarding GGUGAUCUGGACCAAGAUGTT against Lcp1, the z-score is inactive: -0.52.
As for GGAUGCACAUAUUCAAGCCTT against Ssh1, the z-score was inactive: -0.138.
With GGAGCAGCGGGUUUAUUGUTT against Mfn2, the z-score was inactive: 0.167.
Then GGCUUUGAUCAGCAUGAGCTT against Pak4, with active: -2.07; and GGUUUGAGAAAUUGGACAUTT against Pou6f1, with active: 3.72; and GGAAUAUCGGACUUUUUCATT against Mis18bp1, with inactive: 0.635.
Take CCCUGACAGAUUAAUUUCATT against Zbed3: the z-score is inactive: -0.558.
With GCAUUUAAAAUACACGGUGTT against Arg1, the z-score is inactive: 0.264.
Then GGCAUAGUUGCUGUUCUCUTT against Slc9a9, with inactive: -0.871.
As for CGGAGUGUACCAUCUACACTT against Agpat4, the z-score is inactive: 0.193.
Then GGCGGAAAUUGUGAAGAGGTT against Tle5, with inactive: -0.497.
With CGCUUGCUCGGAUUGACAATT against Bpifb3, the z-score was inactive: 0.688.
On to AUGCGUUUGUCAUGAAUUUTT against Rnf182, for which the z-score is inactive: -1.23.
Turning to GGAGCUUAGUUACCCACAUTT against Drg2, the z-score is inactive: -0.144.
As to GGCAUAUCAGACAACAAGATT against Tcte1, the z-score is inactive: -1.25.
As to GGCGAAUGAAGGUUUCUGGTT against Pex11b, the z-score is inactive: -0.581.
With GGACUUCUCAUCCUAUUUATT against Iah1, the z-score was inactive: -0.638.
As to GGGAGAGACUAACUUGUUUTT against Hpvc2, the z-score is inactive: 0.0623.
On to GGCUCAGACCCUGUACUAATT against Selenof, for which the z-score was inactive: 1.77.
With GGAUCAGUAAAGCAAAAAUTT against Lsamp, the z-score is inactive: -0.22.
Regarding CCCAUGUAAGGAUGUGUCGTT against Frmd5, the z-score is inactive: 0.761.
With GGUAUUUGUGCCAAUUGCCTT against Ccr6, the z-score is inactive: -0.302.
Take GCCUCGUAUAGAGAAGUGATT against Gnat1: the z-score is inactive: -1.91.
Take GGAGAUCCAAGAGAAAUUUTT against Csf3r: the z-score is inactive: 1.18.
Turning to GGAAGAAACAUGUAUCAUGTT against Tff1, the z-score was inactive: 0.556.
Turning to “GCAUAAUGACCAUGUCUGUTT against 1700001J03Rik”, the z-score is inactive: -0.337.
On to GGCAAUUUCAGACAAGUAUTT against Grhl1, for which the z-score was inactive: 0.892.
As to GGUUUUAGAUAUUAACCUGTT against Hnrnpc, the z-score is inactive: 0.659.
Consider GGGUAAUGCUGACUACAGGTT against BC055324, for which the z-score is inactive: 0.579.
For GGUGAGACGUGCUUCAAAUTT against Smtnl2 the value was inactive: 0.172.
Regarding GGGCUCUGGUGGAUGAAUUTT against Cnpy2, the z-score was inactive: 0.801.
For GCAUGAUGAUUCGUCAGACTT against Ero1a, the z-score was inactive: 0.245.
Then GGCCUCCUAAGAGGACUCATT against Dach1, with inactive: -1.11; and GGACAACAGAAGACCUGUUTT against Nhsl1, with inactive: -0.611.
Regarding GGUACAGUUAAAGAAUCUGTT against Ahsa2, the z-score was inactive: 0.375.
For CCAAGAAGAGUUAUGUAAUTT against Depdc1a the value was inactive: -1.33.
As to GGAGUUGGGUAUCAUUAAGTT against Gphb5, the z-score is inactive: -0.152.
For the sequence GGUAAUUCAGUCUUAUACATT against Pcdhb21, the z-score is active: 3.2.
Consider GGUUUAGCUGCAUUAAAAGTT against Lrrc27, for which the z-score was inactive: 0.956.
In the case of GGACAUGCUCUAUAAGAAGTT against Pabpc5, the z-score is inactive: -0.642.
For GGCAUGUCUACACACCAUCTT against Ankra2 the value was inactive: -0.106; for GGCAAGAGACAGAAUGAUATT against Ppargc1a, inactive: -1.35.

The record behind these values is PubChem BioAssay AID1508600 (Functional Genomics Laboratory (NCATS/FGL), 2020).
